# Measurements as given in PubChem BioAssay AID330 (DTP/NCI, 2004).
# The list shows only some results of the screen, not a fair sample: it is rich in T/C values a quarter to a half above the control, in often repeated tests (any T/C) and in doses without a T/C. Other doses and runs of a compound stand elsewhere. T/C is the treated group as % of the vehicle group. Some entries give survivors of the animals treated and no T/C: the source holds a T/C of zero for them, seemingly a mark for toxic or unscored doses. Some survivor counts are full or nearly so, which does not show that the dose was tolerated: the source hardly ever lists a survival T/C far under the control, and the zero likely stands for such cases as well. Survivors were counted at the toxicity check, usually on the fifth day, unless a day is given; later deaths do not show. Schedules are NCI's codes, read here as Q, the interval in days (D) or hours (H), X, the number of doses. Some entries were tested several times; the results are listed from low to high. For survival time, the PubChem record calls one and a half times the control and up active, and a quarter to a half above the control has no call in these data; cut-offs in other NCI protocols can differ. Some T/C values are followed by the survivors on the day toxicity was checked, most often the fifth; without a count, all were alive then.
# System: P388 leukemia ip, CD2F1 mice, survival T/C
# Assay: NCI In Vivo Anticancer Drug Screen. Data for tumor model P388 Leukemia (intraperitoneal) in CD2F1 (CDF1) mice
# Settings: T/C endpoint: median survival time, higher T/C = longer survival
# [1] = dose: 200.0 mg/kg/injection, schedule: Q01DX009 (ip), vehicle: saline
# [2] = dose: 100.0 mg/kg/injection, schedule: Q01DX005 (ip), vehicle: saline
# [3] = dose: 200.0 mg/kg/injection, schedule: Q01DX005 (ip), vehicle: saline
# [4] = dose: 200.0 mg/kg/injection, schedule: Q01DX005 (ip), vehicle: saline with Tween-80
# [5] = dose: 12.5 mg/kg/injection, schedule: Q01DX009 (ip), vehicle: saline
# [6] = dose: 25.0 mg/kg/injection, schedule: Q01DX009 (ip), vehicle: saline
# [7] = dose: 50.0 mg/kg/injection, schedule: Q01DX009 (ip), vehicle: Klucel (hydroxypropylcellulose) (HPC)
# [8] = dose: 200.0 mg/kg/injection, schedule: Q01DX009 (ip), vehicle: Klucel (hydroxypropylcellulose) (HPC)
# [9] = dose: 100.0 mg/kg/injection, schedule: Q01DX009 (ip), vehicle: saline with Tween-80
structure (smiles),measurement,setting,value
FC(F)(F)c1cccc(C2CNCCO2)c1 (centres undefined),survivor count,"dose: 100.0 mg/kg/injection, schedule: Q01DX009 (ip), vehicle: saline",4 of 6
same,survivor count,[1],1 of 6
c1cc2nc(-c3ccc4nc(C5=NCCN5)[nH]c4c3)[nH]c2cc1C1=NCCN1,survivor count,"dose: 12.5 mg/kg/injection, schedule: Q01DX005 (ip), vehicle: saline",6 of 6
same,survivor count,[2],0 of 6
same,survivor count,[3],0 of 6
COc1ccc2c(c1)CCC1C2=CCC2C(=O)OC(=O)C21C (centres undefined),survivor count,[4],4 of 6
Cc1cnc(C)c(NN=O)n1,T/C,[5],131 % of control
same,T/C,[6],126 and 133 % of control
same,survivor count,"dose: 50.0 mg/kg/injection, schedule: Q01DX009 (ip), vehicle: saline",6 of 6
CSc1cccc(NC(=O)OCCOc2ccc(-c3ccccc3)cc2)c1,survivor count,[7],6 of 6
same,survivor count,[8],6 of 6
C[N+]1(CC2CC2)C2CC(OC(=O)C(CO)c3ccccc3)CC1C1OC12 (centres undefined),survivor count,[1],0 of 6
COc1ccc(/C(=C(\c2ccccc2)[N+](=O)[O-])c2ccc(OCCN3CCCC3)cc2)cc1,survivor count,[9],2 of 6
same,survivor count,"dose: 200.0 mg/kg/injection, schedule: Q01DX009 (ip), vehicle: saline with Tween-80",0 of 6
CN(N=O)C(=O)Nc1ccc(C(=O)O)cc1,survivor count,[9],6 of 6
same,survivor count,"dose: 150.0 mg/kg/injection, schedule: Q04DX003 (ip), vehicle: saline with Tween-80",5 of 6
S=C(Nc1ccc(Br)c(Cl)c1)SCc1ccc2c(c1)OCO2,T/C,[7],132 % of control
same,T/C,"dose: 100.0 mg/kg/injection, schedule: Q01DX009 (ip), vehicle: Klucel (hydroxypropylcellulose) (HPC)",132 % of control [4 of 6 alive]
same,survivor count,[8],0 of 6 and 2 of 6
c1ccc([P+](CC[P+](c2ccccc2)(c2ccccc2)c2ccccc2)(c2ccccc2)c2ccccc2)cc1,survivor count,"dose: 3.13 mg/kg/injection, schedule: Q01DX009 (ip), vehicle: saline",5 of 6
same,survivor count,"dose: 6.25 mg/kg/injection, schedule: Q01DX009 (ip), vehicle: saline",2 of 6
same,survivor count,[5],0 of 6
same,survivor count,[6],0 of 6
CNc1c(NC)n(C)c(=O)n(C)c1=O,T/C,"dose: 400.0 mg/kg/injection, schedule: Q01DX009 (ip), vehicle: saline",125 % of control
OCCNCCN=C1CCC(=NCCNCCO)CC1,survivor count,[3],2 of 5
CC(OS(C)(=O)=O)C(Br)C(Br)C(C)OS(C)(=O)=O (centres undefined),T/C,"dose: 50.0 mg/kg/injection, schedule: Q01DX001 (ip), vehicle: Klucel (hydroxypropylcellulose) (HPC)",145 % of control
C=CS(C=C)=NS(=O)(=O)c1ccc(C)cc1,T/C,"dose: 25.0 mg/kg/injection, schedule: Q01DX009 (ip), vehicle: other",130 and 132 % of control
same,survivor count,"dose: 50.0 mg/kg/injection, schedule: Q01DX009 (ip), vehicle: other",0 of 6 and 1 of 6
same,survivor count,"dose: 100.0 mg/kg/injection, schedule: Q01DX009 (ip), vehicle: other",0 of 6
same,survivor count,"dose: 200.0 mg/kg/injection, schedule: Q01DX009 (ip), vehicle: other",0 of 6
O=C(N/C(=C\c1ccccc1)C(=O)N1CCN(Cc2ccccc2)CC1)c1ccccc1,survivor count,[4],6 of 6
CC(C)(C)C(S)CS (centres undefined),survivor count,"dose: 100.0 mg/kg/injection, schedule: Q01DX005 (ip), vehicle: saline with Tween-80",0 of 6
same,survivor count,[4],0 of 6
CCOC(=O)c1c[nH]c2ccc(N(CCCl)CCCl)cc12,survivor count,"dose: 50.0 mg/kg/injection, schedule: Q01DX009 (ip), vehicle: saline with Tween-80",6 of 6
CC12COC(=O)CC1CCC1C2CCC2(C)C1CCC2(C)O (centres undefined),survivor count,"dose: 400.0 mg/kg/injection, schedule: Q04DX003 (ip), vehicle: saline with Tween-80",0 of 6
CC(C)N1COC2Cc3ccccc3CC21 (centres undefined),survivor count,[2],0 of 6
same,survivor count,[3],0 of 6
CC(C)(C)P(c1ccccc1)C(C)(C)C,survivor count,"dose: 200.0 mg/kg/injection, schedule: Q04DX002 (ip), vehicle: saline with Tween-80",5 of 6
same,survivor count,"dose: 400.0 mg/kg/injection, schedule: Q04DX002 (ip), vehicle: saline with Tween-80",0 of 6
